Data as given in PubChem BioAssay AID743121 (NCATS, 2013)

Aim: 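Partners whose loss is lethal together with topoisomerase I blockade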 (primary screen)
System: MDA-MB-231 cells, a human breast cancer line
Knock-down reagent: single siRNA against human genes, 20 nM siRNA (0.8 pmol per well)
Time to read-out: 120 h (drug added 48 h after transfection, read 72 h later)
Treatment: camptothecin 20 nM (about EC30) for 72 h; vehicle 0.1% DMSO in parallel plates
Detection: 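CellTiter-Glo ATP signal, scaled to control siRNA as percent viability; sensitisation given as log2 of untreated divided by camptothecin-treated viability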
Scale: log2 vehicle/camptothecin viability: higher = stronger sensitisation to camptothecin; viability with camptothecin: higher = more viable cells
Units: viability with camptothecin in % of control
Call rule: 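Active genes have an RSA gene-level p-value below 0.001, computed from the ratios of their separate siRNAs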
In all, the deposit lists about 26,000 reagents; below is a random part of them. In the full data, 167 (0.63%) got an active call. 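Calls are per gene from RSA p-values that are not deposited; an individual active-marked siRNA can sensitise only weakly.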 Entries without a mark were called inactive. The numbers tell different reagents against one gene apart. Not all columns of the deposit are shown.

MAN2A1 (GeneID 4124) #1 → log2 vehicle/camptothecin viability = -0.00773; viability with camptothecin = 105
MAN2A1 (GeneID 4124) #2 → log2 vehicle/camptothecin viability = 0.0425; viability with camptothecin = 93.7
MAN2A1 (GeneID 4124) #3 → log2 vehicle/camptothecin viability = -0.212; viability with camptothecin = 70
MAN2A1 (GeneID 4124) #4 → log2 vehicle/camptothecin viability = -0.374; viability with camptothecin = 69.9
HOXD13 (GeneID 3239) #1 → log2 vehicle/camptothecin viability = -0.766; viability with camptothecin = 66.4
HOXD13 (GeneID 3239) #2 → log2 vehicle/camptothecin viability = -0.0992; viability with camptothecin = 63.6
HOXD13 (GeneID 3239) #3 → log2 vehicle/camptothecin viability = 0.308; viability with camptothecin = 71.5
PTHLH (GeneID 5744) #1 → log2 vehicle/camptothecin viability = -0.00814; viability with camptothecin = 99.8
PTHLH (GeneID 5744) #2 → log2 vehicle/camptothecin viability = -0.36; viability with camptothecin = 49.8
PTHLH (GeneID 5744) #3 → log2 vehicle/camptothecin viability = 0.286; viability with camptothecin = 59.4
PTHLH (GeneID 5744) #4 → log2 vehicle/camptothecin viability = -0.339; viability with camptothecin = 47.7
CNGA2 (GeneID 1260) #1 → log2 vehicle/camptothecin viability = -0.196; viability with camptothecin = 101
CNGA2 (GeneID 1260) #2 → log2 vehicle/camptothecin viability = -0.603; viability with camptothecin = 69.2
CNGA2 (GeneID 1260) #3 → log2 vehicle/camptothecin viability = -0.062; viability with camptothecin = 106
CNGA2 (GeneID 1260) #4 → log2 vehicle/camptothecin viability = 0.189; viability with camptothecin = 56.2
GABRA4 (GeneID 2557) #1 → log2 vehicle/camptothecin viability = 0.109; viability with camptothecin = 84.4
GABRA4 (GeneID 2557) #2 → log2 vehicle/camptothecin viability = 0.643; viability with camptothecin = 65.4
GABRA4 (GeneID 2557) #3 → log2 vehicle/camptothecin viability = -0.065; viability with camptothecin = 109
GABRA4 (GeneID 2557) #4 → log2 vehicle/camptothecin viability = -0.147; viability with camptothecin = 61.6
GUCY1B1 (GeneID 2983) #1 → log2 vehicle/camptothecin viability = -0.121; viability with camptothecin = 83
GUCY1B1 (GeneID 2983) #2 → log2 vehicle/camptothecin viability = -0.0943; viability with camptothecin = 56.2
GUCY1B1 (GeneID 2983) #3 → log2 vehicle/camptothecin viability = -0.545; viability with camptothecin = 101
GUCY1B1 (GeneID 2983) #4 → log2 vehicle/camptothecin viability = 0.189; viability with camptothecin = 70.9
MLLT6 (GeneID 4302) #1 → log2 vehicle/camptothecin viability = -0.311; viability with camptothecin = 28
MLLT6 (GeneID 4302) #2 → log2 vehicle/camptothecin viability = -0.211; viability with camptothecin = 90
MLLT6 (GeneID 4302) #3 → log2 vehicle/camptothecin viability = -0.469; viability with camptothecin = 55.8
MLLT6 (GeneID 4302) #4 → log2 vehicle/camptothecin viability = 0.168; viability with camptothecin = 76.1

Looked up above:
For “viability with camptothecin”, MAN2A1 (GeneID 4124) #2 reads 93.7
Result of MLLT6 (GeneID 4302) #3 under “viability with camptothecin”: 55.8
Under “viability with camptothecin”, PTHLH (GeneID 5744) #3 is entered as 59.4
MLLT6 (GeneID 4302) #4, viability with camptothecin = 76.1
